Measurements reported in US20240197655A1 (REPUBLIC OF KOREA(MASAN NATIONAL TUBERCULOSIS HOSPITAL), priority 2021, published 2024).
Structures can show the parent of a compound that is named as a salt.

Columns and labels:
[1] = system: M. abscessus (ATCC 19997); assay: Resazurin (REMA) broth microdilution dose-response, aerobic culture; assay type: cell-based, Mycobacterium abscessus; conditions: Mycobacteroides abscessus, ATCC19997, 7H9 broth, FIG. 1(A); read-out: IC50 against M. abscessus
[2] = system: M. abscessus (ATCC 19997) under anaerobic conditions; assay: Resazurin dose-response under anaerobic non-replicating culture; assay type: cell-based, Mycobacterium abscessus; conditions: Mycobacteroides abscessus, FIG. 4
Protocol: In order to determine the antibiotic ability against M. abscessus (ATCC 19997) under anaerobic conditions, a bacterial culture (5×10^6 bacteria/mL) was inoculated into 5 mL of 7H9 broth (BD, 271310) supplemented with 10% OADC. The bacterial culture was placed in an anaerobic jar (BD BBLIM GasPAK™ Jar; Franklin Lakes, NJ, USA). Here, a BD BBLIM GasPAK™ anaerobic indicator (methylene blue for monitoring oxygen depletion) was used. The bacteria were cultured in cation-adjusted Mueller-Hinton broth (MH; Sigma-Aldrich, 90922) for drug susceptibility testing.
Experiments were performed in triplicates.
In the present invention, this step confirmed the activity of CC on the non-replicating culture induced by the depletion of oxygen. […] A comparison was made between the growth rates under aerobic, anaerobic and restored aerobic conditions in a same culture medium.

[3] = system: M. abscessus in biofilm culture; assay: Biofilm assay (Calgary Biofilm Device, MBEC Assay); assay type: cell-based, Mycobacterium abscessus; conditions: Mycobacteroides abscessus, FIG. 4
Protocol: The first biofilm assay system was the Calgary Biofilm Device used by Bardouniotis et al. to evaluate the bactericidal activity or minimum biofilm eradication concentration (MBEC) of a biocidal active substance against Mycobacterium phlei. In the present invention, MBEC Assay® (Innovotech, Edmonton, Canada) for MBEC measurement was used. Biofilm formation was performed as follows. […] Then, the 96-well microliter plate was covered with a 96-peg lid and incubated for 4 days. After washing, the bacteria remaining on the biofilms were removed from the wells by ultrasonication in the medium. Finally, after incubation, the adherent bacteria remaining on the biofilms with or without antibiotics were quantified with resazurin.

[4] = system: M. intracellulare (ATCC 13950); assay: microbe, parasite or virus in culture; conditions: Mycobacterium intracellulare, ATCC13950, read-out: IC50 against M. intracellulare
M. avium (ATCC 25291) [5] = assay: microbe, parasite or virus in culture; conditions: Mycobacterium avium, ATCC25291, read-out: IC50 against M. avium, 7H9 broth, FIG. 8
[6] = system: M. abscessus-GFP in THP-1 cells; assay: microbe, parasite or virus in culture; conditions: Mycobacteroides abscessus, THP-1, 72 h, read-out: IC50 growth of M. abscessus-GFP in THP-1 cells
Protocol: (§1) THP-1 cells were treated with phorbol 12-myristate 13-acetate (PMA; Sigma-Aldrich, USA) at a final concentration of 50 nM for 40 hours. Infection with M. abscessus containing pTEC15 green fluorescence or luciferase was performed at 37° C. in the presence of 5% CO2 at a multiplicity of […] (MOI) of 2:1 for 3 hours. After extensive washing with PBS, the cells were incubated in a culture medium containing […] of gentamicin for 30 minutes and washed again with PBS. […] Macrophages were stained with SYTO 60 (Invitrogen, USA) dye at a final concentration of 5 μM at 37° C. in a 5% CO2 atmosphere for 30 minutes. On the day 4, luminescence was measured with a Synergy H1 microplate reader (Bio-Tek, USA). The fluorescence microscopic images of living cells were captured with a Lionheart™ FX automated microscope (BIO-Tek, USA). The Gen5™ 3.05 software object feature was available for identification of the cells in the imaging field.

M. avium (ATCC 25291) [7] = conditions: 7H9 broth, FIG. 8
[8] = system: M. abscessus (lux) in THP-1 cells; assay: microbe, parasite or virus in culture; assay type: cell-based, Mycobacterium abscessus; conditions: Mycobacteroides abscessus, THP-1, read-out: IC50 growth of intracellular M. abscessus (lux)
Protocol: as §1
The use of a double read assay results in dose-response curves for both inhibition for M. abscessus and cytotoxicity to THP-1 cells as determined in a same experiment. […] The cytotoxicity was determined using a SYTO 60 probe.

M. abscessus-LuxG13 = assay: microbe, parasite or virus in culture; conditions: Mycobacteroides abscessus, read-out: IC50 in M. abscessus-LuxG13

Structure (SMILES): CCN(CC)CCOc1ccc(C(=C(Cl)c2ccccc2)c2ccccc2)cc1 [CC, clomiphene citrate]
- IC50 [1]: 17.1 µg/mL
- IC50 ([2]; ATCC19997, anaerobic conditions): 3.16 µg/mL
- IC50 ([2]; ATCC19997, anaerobic culture conditions): 0.00316 µg/mL
- IC50 [3]: 15.9 µg/mL
- IC50 [4]: 14.1 µg/mL
- IC50 (M. avium (ATCC 25291) [5]): 5.08 µg/mL
- IC50 [6]: 13.2 µg/mL
- IC50 against M. avium (M. avium (ATCC 25291) [7]): 5.07 µg/mL
- IC50 [8]: 2.29 µg/mL
- IC50 (M. abscessus-LuxG13): 5.36 µg/mL
